Measured values from the supplement of paper PMC5949888.
Most values lie at the floor of the assay. Slopes are relative: functional sequences can read slightly below zero.

Each substance was assayed on Saccharomyces cerevisiae PS128 hsf1 delta, HSF1(1-493) fusion (assay: growth estimate (transactivation domain function in HSF1 fusion, heat-shock survival) (a.u. (slope of normalised read count over time)); higher = stronger growth at 37°C, i.e. more transactivation activity). Conditions: library: random library.
Method: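 Random 60-nt DNA library encoding peptides of up to 20 aa, fused to the C-terminus of yeast HSF1 residues 1-493 (C-terminal TAD deleted) and expressed from the native HSF1 promoter on a CEN plasmid in hsf1-deleted S. cerevisiae PS128. Cells were selected at 37°C on -trp 5-FOA plates for 0, 2, 4, 6 and 8 days and amplicons were sequenced. Growth estimate is the slope of a robust linear fit of total-sum-normalised read counts (normalised to the first time point) over time, using at least 2 replicates. Sequences are classed functional (TAD activity) above a threshold of -0.13, set from stop-codon control sequences.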

Substance	growth estimate
LSRRGFASKFRVWEGGVTRW	< -0.25
AEPLGVATRSLGRNMDRAER	< -0.25
FRVIERLDLRDWASLCLHS	< -0.25
RTDNITRHGSWNY	< -0.25
LDRRLGLLTTVS	< -0.25
VSMVWESVIVRGIGIICARY	< -0.25
GWGFLG	< -0.25
AINA	< -0.25
LYMRLNSQCKPGAS	< -0.25
VSRRMPGLMARRAVSSALQP	< -0.25
MVEGRLGQIWLVLCHIVSAM	< -0.25
MGLDAAWGKTQLHISNEFGV	< -0.25
QRCSSPTSYLNGCPT	< -0.25
PSFDRPVESS	< -0.25
VCRTTVNAVTGKGDAPGAGR	< -0.25
IMGHEIPFAP	< -0.25
FASQDFAPPLQTILFNLQRR	< -0.25
HNPQS	< -0.25
ECGSASSVG	< -0.25
AELNT	< -0.25
TLKLE	< -0.25
PNLELPVMV	< -0.25
QGLKPDVNDLGKWSGEVRQV	< -0.25
FRGGVRNSTFRDGGKLLPCT	< -0.25

Taken from above:
AEPLGVATRSLGRNMDRAER – growth estimate: < -0.25
AINA – growth estimate: < -0.25
FRVIERLDLRDWASLCLHS – growth estimate: < -0.25
FASQDFAPPLQTILFNLQRR – growth estimate: < -0.25

Carrying on.

Substance	growth estimate
GWALSRMPRTYMKRVPI	< -0.25
MLKENGHWVQSSAPGTVWNT	< -0.25
GKTLP	< -0.25
ICGHRQLRVGHLSMTT	< -0.25
LRVSHVK	< -0.25
MKRCKPMTLRGGLTWAKSPP	< -0.25
MSVNM	< -0.25
CGSMECSAPAAWGEQYIQRV	< -0.25
STPSRQKSSYGFGHGDKDKD	-0.246
HDVWSSVLIGLPVRGGCVTV	< -0.25
SLIVLHRIMRNSSASKLSIT	< -0.25
LNTEHGPERATKSA	< -0.25
SSIVASLWVVV	< -0.25
WVVASGSPQIHEKTGIAGRQ	< -0.25
LPGDYDAACLGVERWRRKAP	< -0.25
RLVCVYSGACWRTVSH	< -0.25
SNSRMPRYPIRF	< -0.25
VSRWGNSKAIRAIRRGLYRI	< -0.25
CFYAHRVRSVLEQYLWR	< -0.25
NNTWKGQRQDRVGGADRSFQ	< -0.25
HGGGRVHLKLAKLIWGRVRP	< -0.25
PYLLQSA	< -0.25
VEPGGDPTLVFGYVSGEPKP	< -0.25
TFAEMNLTIIR	< -0.25

Substance	growth estimate
RKMGGPVASMKGERG	< -0.25
TKKVGRRKCKSLPVARRSLI	< -0.25
SIPCKALLGDVVGRVRVSWR	< -0.25
HYLIN	< -0.25
GPA	< -0.25
CLAALHQS	< -0.25
VGPLVRPL	< -0.25
PVIHLDQVDAVRRRLVGRDT	< -0.25
PSRPQGCFRTERSRRR	< -0.25
KRDRKPLPVGGRYPWDEVMD	< -0.25
LVGTKIRGL	< -0.25
LRIPATNDDDQT	< -0.25
PLTRLSRGLSI	< -0.25
HCKRYHKFHPGATAPPHGPS	< -0.25
YCNDWGETHLNIRYWLGNQP	-0.147
SPKRWYINAAFSLGR	< -0.25
NSIGYSATYSFVQLRRISTG	< -0.25
LTL	< -0.25
PQGYAVLAS	< -0.25
TSETGLM	< -0.25
DIPNDGWVINVHASWYMGVA	< -0.25
LSEKAPSPLLRCYDHALSSD	< -0.25
SVSRPTSLGCRGPRDVARCH	< -0.25
DGLQSNWQRSFVFGFIS	< -0.25

Substance	growth estimate
PFGCASLRWLSHRGYEEPPT	< -0.25
LPKQSGA	< -0.25
LQTCYCQNAISGDRYVSSFD	< -0.25
PVCSFLRLLFSLNMGRLTSG	< -0.25
RYGCWEHHTKFVGMPFVLDR	< -0.25
LPLIGEFRTLQELIDRSRNY	< -0.25
GDLPCVPGSVYSGTCDRMEA	< -0.25
LARCGEEGQ	0.492
SAQGK	< -0.25
LCRQHLELDCPALSLGSVRS	< -0.25
ELP	< -0.25
VAYKAEHVTFAGAYF	< -0.25
VVRRIAK	< -0.25
NIRECPYEIKTCPVERVVPL	< -0.25
WTQCG	< -0.25
TRCCLEFLYTW	< -0.25
NPRALAINCPDRLENIEMRR	< -0.25
RHMVYVNKSGNLSSSGDLYT	< -0.25
KFRPV	-0.18
LARPIGVPQGESAAARIESR	< -0.25
NGLWVPRGTTNTPPLAWRLW	< -0.25
RVWGHSRSWCVETAG	< -0.25
RPSPWTLTVGAK	< -0.25
IMVFLVSQ	< -0.25

Substance	growth estimate
RPRCNGNKRATALRD	< -0.25
LILQQPTVILISAFGLVRYH	< -0.25
TGGYG	< -0.25
PNSRRRQDVPKNWSREQTSL	< -0.25
LINIEIKLKCELKDMTKRGK	< -0.25
RCTRFGVNRW	< -0.25
NQAP	< -0.25
SWAAVPRWAWCLRAMRLLGL	< -0.25
SYLTIGGEPGLQLLAESVHP	-0.246
RGTIR	< -0.25
IGRCYDSTPCDAAQCQGVRA	-0.238
GSSHGQCTGPGTIGGHRASI	< -0.25
YKYTWAVEDWAWGPPVCKRE	< -0.25
NCLACRTGSCGAGNLLSVFF	< -0.25
LSGKSLEAIHDPTGNVVWEL	< -0.25
RWMTFFL	< -0.25
SVIRECLYSDYER	< -0.25
RVEPSPYSVRLSARRDNS	< -0.25
YGGLTAHVRIVDGNRGNLPI	< -0.25
FIYPTVFKGPSLTER	< -0.25
VYTALDNHS	< -0.25
KSVLRLGDGH	< -0.25
TVAQLATGGWFLRRCEHGYS	< -0.25
SNGAKRSLNSIIIAISGVGP	-0.231

3 entries from above, as comma-separated lines:
Substance,growth estimate
YGGLTAHVRIVDGNRGNLPI,< -0.25
FIYPTVFKGPSLTER,< -0.25
VYTALDNHS,< -0.25

Next results follow.

Substance	growth estimate
TSRAMRCLGSIKRLLPKALP	< -0.25
PNFMVQACLPGTYELRTPPK	< -0.25
LGFTIIRIFRSTSVGLRRDA	< -0.25
LAERMV	< -0.25
GVHSNQKRGISPRIQGTPPT	< -0.25
SALLGLFLDLVPRAERSRCF	< -0.25
QVS	< -0.25
VHHALQNRF	< -0.25
STWGTAATDVP	< -0.25
WASSPAPGGDDI	< -0.25
YKIIRKEPWHFRL	< -0.25
QGSLYHCPGNEGLPWVLGFM	< -0.25
NPISKAIVW	< -0.25
QRILYEY	< -0.25
IEGNETCVAGYGAEDRSWLP	< -0.25
DRPSY	< -0.25
IPVASNTPANSMTVPTKHFL	< -0.25
QSRLPIHHAQLDYSRVAFPL	< -0.25
LWTLSGTAWCGGLVDPLSGR	< -0.25
EVRVPDCIAQRVIRIFRAIM	< -0.25
RAKISEHPVPPCRHRRFVRR	< -0.25
CSGLWGNSMAIFRRSVCLSG	< -0.25
DLLSPRHFEVHYALYHGHTP	< -0.25
CCRPVQYYV	< -0.25

Substance	growth estimate
VSL	< -0.25
VVGDTCMTRTIPL	< -0.25
PRRDEALGGFTVRLKIASKL	< -0.25
GDLFRLRIPLL	< -0.25
PVLGWLATKTC	< -0.25
KMPAFEVLPARLTGGVGFWP	< -0.25
PDWRIEKKCGHRAFPKCPYC	< -0.25
SLGPANSYPRVRG	< -0.25
CSLQLPKVALRVVRVCVGGD	-0.246
TTRASERARPELA	< -0.25
GSEK	< -0.25
REKDMNVDRVRLLVPWV	< -0.25
VAVDRMESDFTEDVGT	< -0.25
FVRCRAGRNMEGPGLGLSDK	-0.25
PGLASSLTVQ	< -0.25
PTLLPSLT	< -0.25
VKRDRFDSRAWQHIHVPHHS	< -0.25
ANINGRRHLILRCGSDGCLV	< -0.25
GLKF	< -0.25
LNVCYWFG	< -0.25
MPFTRKTSRVKRSAPDTSLL	< -0.25
LVSLSPKVV	< -0.25
SRFTRHECVSSGCCFEYTDV	< -0.25
LWEQ	< -0.25

As a short view, some entries already given:
Substance	growth estimate
CSLQLPKVALRVVRVCVGGD	-0.246
TTRASERARPELA	< -0.25

(further entries)

Substance	growth estimate
HRFGSTDNSLVGMLGVTGSI	< -0.25
WCGWYEFSSGKNHRGQARLD	< -0.25
ESEPTDLYGRFLPEVLYG	-0.179
AGLLRNSPSHFVASVLGLCP	< -0.25
LFLLFYTFGSLLCRLPSAI	< -0.25
TLSRH	< -0.25
QVQDLSYGVRLQGPDSGRGP	< -0.25
RPSVGKPCTRWPLKDPSQRL	0.275
SSGARSVRLISCLP	< -0.25
IKKTDGNEKIQVSNNSTVIS	< -0.25
IRTVCDNVQAMPRADSGSRR	< -0.25
LTNRKVR	< -0.25
ASKVCYRCRKDSVGGTQ	< -0.25
TDQGDHR	< -0.25
TPGVQVPGPEFW	< -0.25
AGIT	< -0.25
VRCRFMGGVVAWTRLRLMYH	< -0.25
CLYGIPPGPIGTL	< -0.25
HQQQNGTMKFSEVVEDIEAE	< -0.25
LWVTG	< -0.25
IELGGPV	< -0.25
ERCGSRIINNVMS	< -0.25
